± gives the standard deviation. The list shows a part of the results, in another mix than the full data. Many entries were measured with a wide error.

The subject of this assay is MIWI (PIWIL1) piRISC loaded with Kctd7 piRNA (30 nt). Description: pre-steady-state target cleavage rate (min^-1); MIWI and MILI are mouse PIWI proteins and EfPiwi is from a freshwater sponge; tags in brackets are library labels; higher = faster piRNA-guided slicing of the target. The conditions noted are these: guide: Kctd7 piRNA 5'p-UGUUAAUCUCUCAGAGAAGGUGACAGUGAU; auxiliary factor: 500 nM mouse GTSF1. The method, boiled down: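 Cleave-'n-Seq used a transcribed, DNA-blocked target RNA library at 0.1 nM and active affinity-purified piRISC with one synthetic guide at 1 nM, with or without 500 nM GTSF1 partner protein, in HEPES–potassium acetate buffer at 33 °C for 0–8 or 0–960 min. Uncleaved targets were sequenced and normalised to depth and to weakly complementary targets, and three trials were pooled with k3 capped at 0.0001 min^-1. The pre-steady-state cleavage rate was estimated by a burst-and-steady-state fit.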
For UAGUCUGUCACCUUCUCUCUCAGAUUAAGA, the “pre-steady-state target cleavage rate” value worked out at 0.00106 ± 0.0084.

For UAGUGACAGUGGAAGAGACAGAGGUUAACA, the “pre-steady-state target cleavage rate” value came to 0.000245 ± 0.017.

Consider UAGUGACACACCUUCUGAGAGAGAUUUUGA, for which the “pre-steady-state target cleavage rate” value was 0.00187 ± 0.0082.

Take UAGUGACUCACCUUCUGAGAGAGAUUAUGA: the “pre-steady-state target cleavage rate” value was determined as 0.000588 ± 0.012.

For the sequence UAGUGACAGUGGAACUCUGAGACAUAAACA, the “pre-steady-state target cleavage rate” value stood at 0.0013 ± 0.013.

Turning to UAGUGACAGUGGAAGAGAGAGAAAUUAACA, the “pre-steady-state target cleavage rate” value is 0.000168 ± 0.033.

On to UAGUGACAGUCCUUCACUGAGAGAAUAACA, for which the “pre-steady-state target cleavage rate” value was found to be 0.00126 ± 0.0074.

Regarding UAGUGAGUCACCUAGUCUGAGAGAUUUUGA, the “pre-steady-state target cleavage rate” value is 0.00034 ± 0.025.

For the sequence UAGUGACAGUCCUUCUCUGAGAGUUUUACA, the “pre-steady-state target cleavage rate” value is 0.0012 ± 0.0051.

On to UAGUCUGUCACGUUCUCUGAGAGAUAUUGA, for which the “pre-steady-state target cleavage rate” value is 0.00134 ± 0.0055.

Consider UAGUGACAGUCCUUCUCUGAGAGAUUAAACA, for which the “pre-steady-state target cleavage rate” value was 0.0368 ± 0.0052.

In the case of UAGACUGUCACCUUGACUGAGAGAUAUUGA, the “pre-steady-state target cleavage rate” value was found to be 0.000659 ± 0.0072.

Regarding UAGUGACAGUCCUUCACUCAGAGAUUAACA, the “pre-steady-state target cleavage rate” value was 0.000828 ± 0.011.

Turning to UUCACUGUCACCUUCUCUGACUGAUAUUGA, the “pre-steady-state target cleavage rate” value came out at 0.00148 ± 0.0054.

UAGUGACAGUCCUUCUCUGAGACAUUAUCA: the “pre-steady-state target cleavage rate” value came out at 0.00032 ± 0.014.

For UAGUGAGUCACCUUCAGAGAGAGAUUAAGA, the “pre-steady-state target cleavage rate” value was 0.00202 ± 0.0083.

Consider UAGUGACAGACCUUCUCUGAGAGAUAUUGA, for which the “pre-steady-state target cleavage rate” value was found to be 0.00217 ± 0.0055.

Consider UAGACUGUCACCUUCUCUGAGACUAUAUGA, for which the “pre-steady-state target cleavage rate” value came out at 0.000121 ± 0.014.

With UAGUCUGUCACCUUCACUGAGAGAUUUUGA, the “pre-steady-state target cleavage rate” value worked out at 0.176 ± 0.046.

UAGUGACAGUCCUUCUCUCAGUGAUUAACA: the “pre-steady-state target cleavage rate” value was 0.002 ± 0.0039.

Turning to UAGUGACAGACCUACUGUGAGAGAUUAACA, the “pre-steady-state target cleavage rate” value was found to be 0.0025 ± 0.0049.

For AUCACUGGCACCUUCUCUGAGAGAUUAACA, the “pre-steady-state target cleavage rate” value was 0.724 ± 0.17.

Consider UAGUGACUCACCUUCUCUGAGUCUUUAACA, for which the “pre-steady-state target cleavage rate” value worked out at 0.00077 ± 0.011.

Regarding UAGUGACAGACCUUCUGUGAGAGAUUUUGA, the “pre-steady-state target cleavage rate” value came to 0.00132 ± 0.01.

UAGACUGUCACCUUCUCUGACAGAUUAAGA: the “pre-steady-state target cleavage rate” value is 0.00143 ± 0.004.

Take UAGUGACAGUGCUUCUCGUGAGAGAUUAACA: the “pre-steady-state target cleavage rate” value stood at 0.000944 ± 0.0095.

Consider UAGACUGUCACCUAGACUGAGAGAUUAAGA, for which the “pre-steady-state target cleavage rate” value amounted to 0.000541 ± 0.01.

Regarding UAGACUGUCACCUUCUGACAGAGAUAUUGA, the “pre-steady-state target cleavage rate” value was found to be 0.000132 ± 0.037.

Turning to UAGUGACAGUGGAAGAGUGAGAAUUAACA, the “pre-steady-state target cleavage rate” value was found to be 0.000266 ± 0.031.

For the sequence UAGUGACAGACCUUCUCUGUGACAUUAACA, the “pre-steady-state target cleavage rate” value was found to be 0.00672 ± 0.0033.

For AUCUACUGUCACCUUCUCUGAGAGAUUAACA, the “pre-steady-state target cleavage rate” value was 0.719 ± 0.041.

Turning to UAGUGACUCAGGUUCUCUGAGAGAUUAAGA, the “pre-steady-state target cleavage rate” value came to 0.000279 ± 0.021.

For UAGUGACAGUCCUUCUCUGAGUGAUUUACA, the “pre-steady-state target cleavage rate” value came to 0.000996 ± 0.0071.

UACACUGUCAGCUUCUCUGAGAGAUUAACA: the “pre-steady-state target cleavage rate” value was 0.655 ± 0.027.

For the sequence UAGUGACAGUGCUUCUCUCAGAGAUUUACA, the “pre-steady-state target cleavage rate” value is 0.00104 ± 0.0069.

Take UAGUGACUCUACCUUCUCUGAGAGAUUAACA: the “pre-steady-state target cleavage rate” value was determined as 0.122 ± 0.014.

For UAGACUGUCACCUUCUCUGAUGAGAUUAACA, the “pre-steady-state target cleavage rate” value came out at 0.00209 ± 0.0042.

Regarding UAGUGACAGACCUUGACUGAGAGAUUUUGA, the “pre-steady-state target cleavage rate” value was 0.000212 ± 0.036.

Turning to UAGUGACAGACCUUCUCUGAGAGUAAAAGA, the “pre-steady-state target cleavage rate” value turned out to be 0.000351 ± 0.02.

For UAGUGACAGACCUUCUGUGAGAGAUUAUGA, the “pre-steady-state target cleavage rate” value is 0.00251 ± 0.0063.

For the sequence UAGUGACACACCUUCACUGAGAGAUUUUGA, the “pre-steady-state target cleavage rate” value was found to be 0.00288 ± 0.0044.

Regarding UAGUGAGUCACCUUGCUCUGAGAGAUUAACA, the “pre-steady-state target cleavage rate” value was 0.332 ± 0.07.

Consider AUCUCUGUCACCUACUCUGAGAGAUUAACA, for which the “pre-steady-state target cleavage rate” value stood at 0.627 ± 0.042.

With “UAGUCUGUCACCUUCUCUCUCUCUAAUUGA [g13:g26:cont:t1A]”, the “pre-steady-state target cleavage rate” value amounted to 0.000844 ± 0.0095.

AUCACUCAGACCUUCUCUGAGAGAUUAUGA: the “pre-steady-state target cleavage rate” value is 0.00269 ± 0.005.

On to UACACUGUCACCUUCUCUGUCAGAUAUUGA, for which the “pre-steady-state target cleavage rate” value is 0.00314 ± 0.0065.

With UAGUGACAGUCCUUCUCUCAGAGAUAAACA, the “pre-steady-state target cleavage rate” value was 0.00145 ± 0.0053.

Regarding UAGUGACAGUCCUACUCUGUGAGAUUAACA, the “pre-steady-state target cleavage rate” value was found to be 0.000559 ± 0.016.

Turning to UAGACUGAGUCCUUCUCUGAGAGAUUAUGA, the “pre-steady-state target cleavage rate” value was 0.00278 ± 0.0029.

UAGACUGUCACCUUCUGAGAGAGAUAUUGA: the “pre-steady-state target cleavage rate” value was found to be 0.000482 ± 0.011.

Consider UAGUGACAGUGGAACUCUGAGUGAUUAUCA, for which the “pre-steady-state target cleavage rate” value came to 0.000537 ± 0.022.

For the sequence AACACUGUCACCUUCUCUGAGAGAUUAACA, the “pre-steady-state target cleavage rate” value came out at 0.746 ± 0.03.

Consider AUCACUGUCACCUUCACUGAGACAUUAACA, for which the “pre-steady-state target cleavage rate” value came to 0.252 ± 0.024.

As to UAGUGACAGUCCUUGAGUGAGAGAUUAACA, the “pre-steady-state target cleavage rate” value stood at 0.000622 ± 0.011.

On to UUCACUGUCAGGAUCUCUGAGAGAUUAUGA, for which the “pre-steady-state target cleavage rate” value turned out to be 0.00122 ± 0.0051.

For UAGACUGUCACGUUCUCUGAGAGAUAUUGA, the “pre-steady-state target cleavage rate” value is 0.000286 ± 0.014.

As to UUCACUGUCACCUUCUCUGUGAGAUUUACA, the “pre-steady-state target cleavage rate” value was 0.158 ± 0.027.

Consider UAGUGACAGUCGUUCUCUGUGAGAUUAACA, for which the “pre-steady-state target cleavage rate” value was found to be 0.000148 ± 0.034.

On to “UAGUGACAGUGGAUCUCUGAGAGAUUAACG [g2:g17:cont:t1G]”, for which the “pre-steady-state target cleavage rate” value amounted to 0.000903 ± 0.0071.

On to UUCACUGUCACCAUCUCUGUGAGAUUAACA, for which the “pre-steady-state target cleavage rate” value stood at 0.215 ± 0.015.

For UAGUGACAGUGGAAGUCUGAGCAGAUUAACA, the “pre-steady-state target cleavage rate” value was 0.000116 ± 0.033.

UAGUGACAGACCUUCUCUGAGAGAUAAAGA: the “pre-steady-state target cleavage rate” value is 0.00221 ± 0.005.

Consider UUCACUGUGUGCUUCUCUGAGAGAUUAUGA, for which the “pre-steady-state target cleavage rate” value is 0.00113 ± 0.0063.

For UAGACUGUCACCUGUCUCUGAGAGAUUAACA, the “pre-steady-state target cleavage rate” value was 0.561 ± 0.036.

On to UAGUCUGUCACCUUGUCUGAGAGAUUUUGA, for which the “pre-steady-state target cleavage rate” value is 0.197 ± 0.06.

Consider UUCACUGUCACGAACUCUGAGAGAUUAAGA, for which the “pre-steady-state target cleavage rate” value is 0.00121 ± 0.0061.

Consider UAGUGAGUCACGAUCUCUGAGAGAUUUUGA, for which the “pre-steady-state target cleavage rate” value is 0.00157 ± 0.0053.

For UAGACUGUCACCUUCUCUGACUGAUUUUGA, the “pre-steady-state target cleavage rate” value amounted to 0.00014 ± 0.031.

Turning to UUCACAGUCACCUUCUCUGAGAGAUUAAGA, the “pre-steady-state target cleavage rate” value turned out to be 0.137 ± 0.027.

UAGACACUCACCUUCUCUGAGAGAUUAUGA: the “pre-steady-state target cleavage rate” value turned out to be 0.141 ± 0.031.

Take AUCACUGUCACGAACUCUGAGAGAUUAAGA: the “pre-steady-state target cleavage rate” value was determined as 0.000786 ± 0.0096.

In the case of UAGUGACAGUCCUUCUCUGAGACGAUUAACA, the “pre-steady-state target cleavage rate” value was found to be 0.000136 ± 0.028.

In the case of UAGUGACAGUCCUUCUCAGAGAGAUUAAGA, the “pre-steady-state target cleavage rate” value is 0.00158 ± 0.0048.

For the sequence UAGUCUGUCACCUUCUCUGAGACUUUUUGA, the “pre-steady-state target cleavage rate” value amounted to 0.00218 ± 0.0046.

Turning to UACACUGUCAGCUUCUCUGAGAGAUAUUGA, the “pre-steady-state target cleavage rate” value was 0.00175 ± 0.0056.

Regarding UACACGGUCACCUUCUCUGAGAGAUUAACA, the “pre-steady-state target cleavage rate” value turned out to be 0.593 ± 0.027.

Consider UAGUGACAGUGCUUCUCUGAGAGGUUAACA, for which the “pre-steady-state target cleavage rate” value was determined as 0.00223 ± 0.0033.

Turning to UAGUCUGUCAGCUUCUCUGACAGAUUAACA, the “pre-steady-state target cleavage rate” value came to 0.00184 ± 0.0062.

For UAGUGACAGUGGAACUCUGAGAGUAUUAACA, the “pre-steady-state target cleavage rate” value was determined as 0.000119 ± 0.039.

As for UAGUGAGUCUGCUUCUCUGAGAGAUUUUGA, the “pre-steady-state target cleavage rate” value amounted to 0.000535 ± 0.0085.

In the case of UAGUGACAGUGCUUCUCAGAGUGAUUAACA, the “pre-steady-state target cleavage rate” value worked out at 0.00112 ± 0.0058.

Turning to UAGUGACUCACCUUCUCUGAGAAUUAACA, the “pre-steady-state target cleavage rate” value was found to be 0.000859 ± 0.0097.

In the case of UAGUGACACACCUUCUCAGUGAGAUUAACA, the “pre-steady-state target cleavage rate” value was found to be 0.00441 ± 0.0046.

As for UAGUGACAGUCCUUACUCUGAGAGAUUAACA, the “pre-steady-state target cleavage rate” value amounted to 0.0326 ± 0.0043.

As to UUGACUGUCACCUACUCUGAGAGAUUAACA, the “pre-steady-state target cleavage rate” value turned out to be 0.689 ± 0.041.

On to UACACUGUCACCUUCAGUGAGAGAUAUUGA, for which the “pre-steady-state target cleavage rate” value was 0.00148 ± 0.012.

For UUCACUGUCACCUUUUCUGAGAGAUUAACA, the “pre-steady-state target cleavage rate” value turned out to be 0.679 ± 0.028.

On to UUCACUGUCAGCUUCUCUGAGAGAUUAACA, for which the “pre-steady-state target cleavage rate” value was 0.723 ± 0.032.

For the sequence UAGUCUCAGACCUUCUCUGAGAGAUUUUGA, the “pre-steady-state target cleavage rate” value was 0.00193 ± 0.0052.

Take UAGUGAGUCACCUUCUGACAGAGAUUUUGA: the “pre-steady-state target cleavage rate” value amounted to 0.00131 ± 0.0086.

Take UAGUGACACACCUAGACUGAGAGAUUAACA: the “pre-steady-state target cleavage rate” value was 0.00089 ± 0.0085.

These data come from the supplement of paper PMC10338343.
